These are yes or no findings as the source states them, for the method shown. For some of these results: In cells and extracts the contact can be indirect. Some results given as binding are weak or reduced against the parent protein; the word gives no strength.
Assays:
[1] = target: T1, solute carrier family 7 member 11 (SLC7A11), endogenous in mouse tracheal epithelial (MTE) cells (mouse) (UniProt Q9WTR6); assay: non-reducing Western blot, 2D PAGE and co-immunoprecipitation, MTE cells (figure legend)
T1 sequence (looked up): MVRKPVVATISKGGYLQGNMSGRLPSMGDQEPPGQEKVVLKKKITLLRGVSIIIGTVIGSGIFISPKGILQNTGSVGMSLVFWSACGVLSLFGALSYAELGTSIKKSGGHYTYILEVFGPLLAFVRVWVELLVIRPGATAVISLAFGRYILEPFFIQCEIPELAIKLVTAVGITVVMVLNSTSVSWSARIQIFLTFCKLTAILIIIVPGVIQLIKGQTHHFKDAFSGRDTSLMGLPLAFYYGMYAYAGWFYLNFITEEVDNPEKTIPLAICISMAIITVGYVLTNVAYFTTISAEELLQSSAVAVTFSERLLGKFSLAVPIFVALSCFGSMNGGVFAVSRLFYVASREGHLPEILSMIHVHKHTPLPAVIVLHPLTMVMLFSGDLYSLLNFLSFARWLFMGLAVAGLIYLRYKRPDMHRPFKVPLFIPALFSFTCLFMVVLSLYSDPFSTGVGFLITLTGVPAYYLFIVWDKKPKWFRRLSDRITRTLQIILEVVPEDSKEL

Chains of the proteins cited; added tags and fusions are not shown. Lines headed by an entry give the natural chain unless they say otherwise; changes in a name come on top. Residues count along the entry.
UniProt Q9UPY5: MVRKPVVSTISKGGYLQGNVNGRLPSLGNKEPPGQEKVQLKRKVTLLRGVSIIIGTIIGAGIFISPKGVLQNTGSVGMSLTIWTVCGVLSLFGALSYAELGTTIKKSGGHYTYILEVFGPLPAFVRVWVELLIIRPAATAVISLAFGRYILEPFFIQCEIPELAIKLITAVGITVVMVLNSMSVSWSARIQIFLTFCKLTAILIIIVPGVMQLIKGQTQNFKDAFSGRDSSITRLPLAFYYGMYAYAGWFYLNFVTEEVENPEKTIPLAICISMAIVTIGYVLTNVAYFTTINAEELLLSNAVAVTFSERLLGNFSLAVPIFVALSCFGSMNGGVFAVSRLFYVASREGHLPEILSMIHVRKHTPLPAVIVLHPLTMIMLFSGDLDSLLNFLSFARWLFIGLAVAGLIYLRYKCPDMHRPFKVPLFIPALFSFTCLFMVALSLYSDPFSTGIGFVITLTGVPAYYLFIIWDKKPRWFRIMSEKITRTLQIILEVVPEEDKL
UniProt Q7TQI3, residues 2-271: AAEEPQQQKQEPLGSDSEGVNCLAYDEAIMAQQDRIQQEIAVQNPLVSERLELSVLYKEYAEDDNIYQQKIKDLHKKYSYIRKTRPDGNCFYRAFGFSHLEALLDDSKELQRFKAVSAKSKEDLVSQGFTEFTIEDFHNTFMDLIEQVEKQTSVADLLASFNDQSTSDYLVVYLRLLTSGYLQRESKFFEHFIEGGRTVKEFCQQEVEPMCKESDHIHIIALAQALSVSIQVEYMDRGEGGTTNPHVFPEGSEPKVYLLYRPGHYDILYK
UniProt Q96FW1: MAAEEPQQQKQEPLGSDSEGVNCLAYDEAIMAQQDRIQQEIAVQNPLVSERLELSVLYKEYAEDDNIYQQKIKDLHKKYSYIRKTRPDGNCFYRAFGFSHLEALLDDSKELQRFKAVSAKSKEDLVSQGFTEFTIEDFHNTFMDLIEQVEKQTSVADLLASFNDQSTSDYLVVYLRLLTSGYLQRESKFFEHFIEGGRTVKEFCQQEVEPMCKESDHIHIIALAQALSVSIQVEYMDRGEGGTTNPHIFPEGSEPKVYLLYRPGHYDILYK
UniProt P10852: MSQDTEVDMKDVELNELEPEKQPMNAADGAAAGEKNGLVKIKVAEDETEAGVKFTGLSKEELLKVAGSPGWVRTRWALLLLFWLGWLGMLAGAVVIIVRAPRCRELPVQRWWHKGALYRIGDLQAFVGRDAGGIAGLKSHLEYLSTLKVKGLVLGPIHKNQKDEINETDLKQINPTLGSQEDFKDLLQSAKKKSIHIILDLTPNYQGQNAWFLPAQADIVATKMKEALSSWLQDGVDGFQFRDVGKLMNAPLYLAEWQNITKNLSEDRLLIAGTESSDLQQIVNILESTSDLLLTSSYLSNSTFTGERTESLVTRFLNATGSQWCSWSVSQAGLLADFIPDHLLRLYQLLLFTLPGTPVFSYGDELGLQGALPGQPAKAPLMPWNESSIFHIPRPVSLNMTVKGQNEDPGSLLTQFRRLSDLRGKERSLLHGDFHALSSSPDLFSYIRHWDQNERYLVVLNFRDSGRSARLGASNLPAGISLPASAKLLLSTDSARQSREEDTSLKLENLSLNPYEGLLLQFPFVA

[2] = target: T1, solute carrier family 7 member 11 (SLC7A11), endogenous in mouse tracheal epithelial (MTE) cells (mouse); assay: co-immunoprecipitation from MTE cell lysates after IL1B (FIG. 3C); also found together in the ~120 kDa complex by 2D PAGE (FIG. 3B)
[3] = target: HA-tagged SLC7A11 overexpressed in H522 lung adenocarcinoma cells (UniProt Q9UPY5); assay: immunoprecipitation and Western blot, H522 cells (figure legend)
[4] = target: HA-tagged SLC7A11 overexpressed in H522 lung adenocarcinoma cells (UniProt Q9UPY5); assay: anti-HA immunoprecipitation and Western blot, H522 cells (figure legend)
[5] = target: HA-tagged SLC7A11 overexpressed in H522 lung adenocarcinoma cells (UniProt Q9UPY5); assay: immunoprecipitation of HA-SLC7A11 or OTUB1 and Western blot, H522 cells (FIG. 5A)
[6] = target: HA-tagged SLC7A11 overexpressed in H522 lung adenocarcinoma cells (UniProt Q9UPY5); assay: anti-HA immunoprecipitation and SLC3A2 blot, H522 cells overexpressing SLC7A11-HA and OTUB1-C23S, compared with OTUB1-WT (FIG. 7E)
[7] = target: HA-tagged SLC7A11 overexpressed in H522 lung adenocarcinoma cells (UniProt Q9UPY5); assay: anti-HA immunoprecipitation and SLC3A2 blot, H522 cells overexpressing SLC7A11-HA and OTUB1-C91S, compared with OTUB1-WT (FIG. 7F)
[8] = target: HA-tagged SLC7A11 overexpressed in H522 lung adenocarcinoma cells (UniProt Q9UPY5); assay: anti-HA immunoprecipitation and SLC3A2 blot, H522 cells overexpressing SLC7A11-HA and OTUB1-C204S, compared with OTUB1-WT (FIG. 7E)
[9] = target: HA-tagged SLC7A11 overexpressed in H522 lung adenocarcinoma cells (UniProt Q9UPY5); assay: anti-HA immunoprecipitation and SLC3A2 blot, H522 cells overexpressing SLC7A11-HA and OTUB1-C212S, compared with OTUB1-WT (FIG. 7F)

Measured: binding

ovarian tumor deubiquitinase-1 (OTUB1), endogenous in mouse tracheal epithelial (MTE) cells (from UniProt Q7TQI3 2-271) (enzyme)
binds: [1] | [2]

SLC3A2 in H522 lung adenocarcinoma cells (from UniProt P08195 2-529)
not listed: [1] | [2]
binds: all other assays above

ovarian tumor deubiquitinase (OTUB1) in H522 lung adenocarcinoma cells (from UniProt Q96FW1 2-271) (enzyme)
binds: [3] | [5]

solute carrier family 3 member 2 (SLC3A2), endogenous in mouse tracheal epithelial (MTE) cells (from UniProt P10852 1-526)
binds: [1] | [2]

From US20260027190A1, “OVARIAN TUMOR DEUBIQUITINASE OXIDATION AND USES THEREOF” (The University of Vermont and State Agricultural College, priority 2022, published 2026)
